Assays:
[1] = Still durability of sample tape coated with the lubricant; settings: period of time until the replay output was lowered by 3 dB
[2] = Shuttle durability of sample tape coated with the lubricant; settings: 100-cycle transport in Play mode, output change between initial and 100th cycle
[3] = Coefficient of friction of sample tape coated with the lubricant; settings: after the 100th-cycle transport, coating weight 5 mg/m^2 on carbon film layer

Molecule	Still durability (min) (−5° C.) [1]	Shuttle durability (dB) (40° C., 20% RH) [2]	Coefficient of friction (40° C., 80% RH) [3]
CCCCCCCCCCCCCCCCCCC(CC(=O)OCCC(F)(F)C(F)(F)C(F)(F)C(F)(F)C(F)(F)C(F)(F)C(F)(F)C(F)(F)F)C(=O)OCc1c2ccccc2cc2ccccc12 (stereo not shown) [Exp. 21, C18H37—CH(CH2COOCH2CH2(CF2)8) COOCH2C14H9]	>120 min	−1.8 dB	0.20
C18H37—CH(CH2COOCH2CH2(CF2)8) COO C6H4F [Exp. 25]	>120 min	–	0.22
2,3-Naphthalenediol [Exp. 9]	>120 min	–	0.21
2,3-Naphthalenediol [Exp. 12]	>120 min	–	0.25
CCCCCCCCCCCCCCCCCCC(CC(=O)OCCC(F)(F)C(F)(F)C(F)(F)C(F)(F)C(F)(F)C(F)(F)C(F)(F)C(F)(F)F)C(=O)Oc1ccc(C(=O)O)cc1 (stereo not shown) [Exp. 26, C18H37—CH(CH2COOCH2CH2(CF2)8) COOC6H4COOH]	>120 min	−1.6 dB	0.22
2,3-Naphthalenediol [Exp. 15]	>120 min	–	0.20
COC(=O)C(F)(F)C(F)(F)C(F)(F)C(F)(F)C(F)(F)C(F)(F)C(F)(F)C(F)(F)C(F)(F)C(F)(F)C(F)(F)C(F)(F)C(F)(F)C(F)(F)C(F)(F)C(F)(F)C(F)(F)C(F)(F)F [Comp. Exp. 2, C8F17(CF2)10COOCH3, reference compound]	50 min	−5.0 dB	0.35
2,3-Naphthalenediol [Exp. 16]	>120 min	–	0.20
CCCCCCCCCCCCCCCCCCC(CC(=O)OCCC(F)(F)C(F)(F)C(F)(F)C(F)(F)C(F)(F)C(F)(F)C(F)(F)C(F)(F)F)C(=O)Oc1ccc(N)cc1 (stereo not shown) [Exp. 24, C18H37—CH(CH2COOCH2CH2(CF2)8) COOC6H4NH]	>120 min	−1.8 dB	0.20
CCCCCCCCCCCCCCCCCCC(CC(=O)OCCC(F)(F)C(F)(F)C(F)(F)C(F)(F)C(F)(F)C(F)(F)C(F)(F)C(F)(F)F)C(=O)Oc1ccncc1 (stereo not shown) [Exp. 22, C18H37—CH(CH2COOCH2CH2(CF2)8) COO C5H4N]	>120 min	−1.8 dB	0.20
C18H37CH(COOH)CH2COOCH2CF(CF3)[CF(CF3)CF2O]3F [Comp. Exp. 4, reference compound]	10 min	–	0.25
2,3-Naphthalenediol [Exp. 11]	>120 min	–	0.21
CCCCCCCCCCCCCCCCCCC(CC(=O)OCCC(F)(F)C(F)(F)C(F)(F)C(F)(F)C(F)(F)C(F)(F)C(F)(F)C(F)(F)F)C(=O)Oc1ccc(-c2ccccc2)cc1 (stereo not shown) [Exp. 27, C18H37—CH(CH2COOCH2CH2(CF2)8) COOC6H4C6H5]	>120 min	−1.7 dB	0.20
2,3-Naphthalenediol [Exp. 13]	>120 min	–	0.25
2,3-Naphthalenediol [Exp. 8]	>120 min	–	0.21
2,3-Naphthalenediol [Exp. 14]	>120 min	–	0.23
2,3-Naphthalenediol [Exp. 18]	>120 min	–	0.20
2,3-Naphthalenediol [Exp. 19]	>120 min	–	0.20
C18H37—CH(CH2COOC18H37)COO C10H6OH [Exp. 10]	>120 min	–	0.21
C18H37—CH(CH2COO(CH2)2(CF2)8F)COOC10H6OH [Exp. 17]	>120 min	–	0.20
CCCCCCCCCCCCCCCCCCC(CC(=O)OCCC(F)(F)C(F)(F)C(F)(F)C(F)(F)C(F)(F)C(F)(F)C(F)(F)C(F)(F)F)C(=O)Oc1ccccc1 (stereo not shown) [Exp. 20, C18H37—CH(CH2COOCH2CH2(CF2)8)COO C6H5]	>120 min	−1.8 dB	0.20
CCCCCCCCCCCCCCCCCCC(CC(=O)OCCC(F)(F)C(F)(F)C(F)(F)C(F)(F)C(F)(F)C(F)(F)C(F)(F)C(F)(F)F)C(=O)Oc1ccccc1C (stereo not shown) [Exp. 23, C18H37—CH(CH2COOCH2CH2(CF2)8)COOC6H4CH3]	>120 min	−1.9 dB	0.20
CCCCCCCCCCCCCCCCCCN [Comp. Exp. 1, C18H37NH2, reference compound]	3 min	−6.0 dB	0.20

Reference: patent publication US6989356B2, “Partially-fluorinated-alkyl compound, lubricant comprising the compound, and recording medium using the lubricant” (Sony Corp., priority 2002, dated 2006)
